## Library screen at single concentrations

Data taken from ChEMBL document CHEMBL3988442, “University of Dundee, Small-Polar-MMV Screening Library” (2021).

A: 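Growth of Mycobacterium tuberculosis over 4 days (cholesterol / DPPC medium with tyloxapol); the read-out is not stated. Compounds at 50 µM. Direction is inferred from retests: higher values go with more growth inhibition. Of about 69,000 compounds tested this way, about 370 (0.54%) reached 50% or more in at least one test.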
B: 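Whole-cell growth test on Mycobacterium tuberculosis, read after 3 days in glucose-containing 7H9 medium; the read-out is not stated. Compounds at 50 µM. Direction is inferred from retests: higher values go with more growth inhibition. Size under these conditions: about 69,000 compounds, about 760 of them at 50% or above in at least one test.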

Each number is a percent effect as filed. The controls that fix the scale are not given in the record; negative values are as filed. Compounds were drawn at random from those tested, without regard to their results. Two or more numbers in one place are separate tests of the same structure; such repeats can differ widely.

Result for Cc1nc(NC(=O)NC2CC(=O)N(C)C2)nn1C (stereo not given) was A: -37.43%; B: -27.04%. Result for CCN(CC)c1nc2sc(C(=O)NCC(=O)OC)cc2s1 was A: 2.767%; B: 11.92%. With COc1ccc(C(=O)C2CCCN(CCCn3cccn3)C2)c(OC)c1 (stereo not given) the screen gave A: -1.914%; B: -23.01%. Cc1nc(O)c2nnn(C[C@H]3CCCN3C(=O)c3ccccc3F)c2n1 gave A: -0.5956%; B: 13.61%. O=C(O)C(F)(F)F.[H][C@]12CCN(C(=O)C3CCOC3)[C@@]1([H])CCC(=O)N2Cc1ccncc1 (stereo not given in full) gave A: -28.71%; B: -2.604%. Result for Cc1cccc(NC(=O)Cn2ncc(SCC(N)=O)c(Cl)c2=O)c1C was A: -24.95%; B: -10.6% and -5.303%. CC(=O)Nc1cccc(OCCNC(=O)N(C)Cc2ccncc2)c1 read A: -6.974% and -16.53%; B: -27.99%. With [H][C@@]12CCCO[C@]1([H])[C@H](NC(=O)CC1CC1)CN(C(=O)c1ccoc1C)C2 the screen gave A: -18.6%; B: -16.39%.

With COC(=O)COn1c(SC)nc2ccccc2c1=O the screen gave A: 31.04%; B: 45.96%. For CCc1nc(CN2CCN(C(=O)c3cc(C)no3)CC2)cs1 the result was A: 3.165%; B: -6.464%. Result for Cc1nn(C)c(C)c1NC(=O)CN1CCCC1c1noc(C2CC2)n1 (stereo not given) was A: -35.29%; B: -4.056% and -33.24%. Result for COCC(=O)NC(c1ccc(Cl)cc1)C(F)(F)F (stereo not given) was A: 11.11%; B: 50.34% and 19.03%. COc1ccc(-n2ccc(C(=O)NCCN3CCCCC3C)n2)cc1 (stereo not given) read A: -0.9165%; B: 44.32%. With COCCCN(Cc1cnc(-c2ccccn2)nc1)C1CCN(C)CC1 the screen gave A: -6.685%; B: 7.718% and -2.31%. CC(c1nnc(-c2ccccc2)o1)N1CCC(Nc2ccccc2)CC1 (stereo not given) read A: 15.61%; B: 43.7%. COc1cc(CN2CCCCCC2c2cccs2)cc(OC)c1OC (stereo not given) read A: -1.14%; B: 17.11%.

COc1ccc2c(c1)C1(CCN(Cc3nccs3)CC1)N(C)CC2.O=C(O)C(F)(F)F.O=C(O)C(F)(F)F gave A: 11.52%; B: 5.656% and -3.771%. For COc1ccccc1CNC(C)c1ccc(-n2ccnc2)cc1.Cl (stereo not given) the result was A: 6.249%; B: 14.99%. With COCC(=O)N1CCC2(CC1)CC(CC(=O)NC1CC1)c1ccccc12 (stereo not given) the screen gave A: -3.811%; B: 5.631%. N#Cc1cccc(N2CCC(CO)(CCc3ccccc3)CC2)n1 gave A: -2.241%; B: -2.348% and 8.712%. CN(C)C(=O)CN1CCC2(CC1)CC(=O)c1c(ccc3ccccc13)O2 read A: -3.001%; B: -5.55%. With Cl.Cl.c1cnc(NCc2cncc3c2CCN(CC2CC2)C3)nc1 the screen gave A: 2.243%; B: 13.62%. CCN(CC)S(=O)(=O)NC1CCN(c2ccc(OC)cc2)CC1 gave A: 7.172%; B: -0.8807%. [H][C@]12CN(c3ncc(F)cn3)C[C@@]1([H])S(=O)(=O)CC[C@@H]2C(=O)N(C)C gave A: -26.08%; B: -8.338%.

For CC(=O)Nc1ccc(C(=O)N2CCSCC2c2ccc(C)o2)cc1 (stereo not given) the result was A: -6.667%; B: -7.328% and -30.08%. Result for CC(C)c1cc(=O)[nH]c(C(C)(C)N)n1.Cl was A: -8.266% and -3.515%; B: -12.28%. For O=C(c1cccc(O)c1)N1CCN(Cc2nnc(C3CCC3)o2)CC1 the result was A: -36.57%; B: -1.852%. Result for COCCNC(=O)Cn1cc(NC(=O)c2cccc(Cl)c2Cl)cn1 was A: -25%; B: -13.42%. Cc1nn(C)c(C)c1C1CCCN1CC(=O)Nc1cc(C(C)C)no1 (stereo not given) gave A: -5.41%; B: 12.25% and 0.779%.

Once more, the final 3:

compound	A	B
O=C(c1cccc(O)c1)N1CCN(Cc2nnc(C3CCC3)o2)CC1	-36.57	-1.852
COCCNC(=O)Cn1cc(NC(=O)c2cccc(Cl)c2Cl)cn1	-25	-13.42
Cc1nn(C)c(C)c1C1CCCN1CC(=O)Nc1cc(C(C)C)no1 (stereo not given)	-5.41	12.25 and 0.779